In assay [1] the target is APEX2-TACC3 (UniProt Q9Y6A5). Description: proximity labelling; APEX2-TACC3 in interphase synchronized JIMT-1 cells, biotinylation by H2O2, streptavidin pulldown, Western blot (Fig. 5I).
Assay [2] concerns the target APEX2-TACC3 (UniProt Q9Y6A5). The assay can be described thus: proximity labelling; APEX2-TACC3 in mitotic JIMT-1 cells, H2O2 to induce biotinylation, streptavidin pulldown, immunoblotting (Supplementary Fig. S4B, C). (In general: In western blotting, separated proteins are transferred to a membrane and probed.)

These are yes or no findings as the source states them, for the method shown. Binding seen in cells or lysates may run through a third protein. A yes stands for co-enrichment or nearness to the bait. Other partners may have been found.

On to “MBD2, endogenous in JIMT-1 (from UniProt Q9UBB5 1-411)”, for which, in the assay with APEX2-TACC3 [1], the binding entry is on record as “binds”.

B1: Kinesin Family Member C1 (KIFC1), endogenous in JIMT-1 (protein, UniProt Q9BW19 1-673)
chain: MDPQRSPLLEVKGNIELKRPLIKAPSQLPLSGSRLKRRPDQMEDGLEPEKKRTRGLGATTKITTSHPRVPSLTTVPQTQGQTTAQKVSKKTGPRCSTAIATGLKNQKPVPAVPVQKSGTSGVPPMAGGKKPSKRPAWDLKGQLCDLNAELKRCRERTQTLDQENQQLQDQLRDAQQQVKALGTERTTLEGHLAKVQAQAEQGQQELKNLRACVLELEERLSTQEGLVQELQKKQVELQEERRGLMSQLEEKERRLQTSEAALSSSQAEVASLRQETVAQAALLTEREERLHGLEMERRRLHNQLQELKGNIRVFCRVRPVLPGEPTPPPGLLLFPSGPGGPSDPPTRLSLSRSDERRGTLSGAPAPPTRHDFSFDRVFPPGSGQDEVFEEIAMLVQSALDGYPVCIFAYGQTGSGKTFTMEGGPGGDPQLEGLIPRALRHLFSVAQELSGQGWTYSFVASYVEIYNETVRDLLATGTRKGQGGECEIRRAGPGSEELTVTNARYVPVSCEKEVDALLHLARQNRAVARTAQNERSSRSHSVFQLQISGEHSSRGLQCGAPLSLVDLAGSERLDPGLALGPGERERLRETQAINSSLSTLGLVIMALSNKESHVPYRNSKLTYLLQNSLGGSAKMLMFVNISPLEENVSESLNSLRFASKVNQCVIGTAQANRK
Consider B1, for which the binding result with APEX2-TACC3 [2] was “binds”.
